# Assay results taken from the supplement of paper PMC4604168 (melanoma cell lines).
# The other results are listed elsewhere or left out. Repeats are few or missing, and single values can be far off.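 The apoptosis fraction was the count of cleaved-PARP antibody-stained nuclei relative to all DNA-stained nuclei, imaged in 1,536-well plates. Screening doses were set so most cells survived, and baseline and induced cleaved-PARP levels vary greatly across cell lines.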
# Tested on: SkMel2
# Assay: cleaved PARP positive nuclei fraction relative to DMSO control; melanoma cells; higher = more apoptosis
# Details: library dose: low library concentration; 72 h
row,SMILES,cleaved PARP positive nuclei fraction
1,"CCCCCCCCc1ccc(CCC(N)(CO)CO)cc1 [fingolimod] + Cc1cc([N+](=O)[O-])ccc1NS(=O)(=O)c1cc(Cl)ccc1Cl [FH535] (first compound 2 µM, partner dose 1 µM)",64.4%
2,"CCCCCCCCc1ccc(CCC(N)(CO)CO)cc1 [fingolimod] + Cn1cc(/C=C2\C(=O)Nc3cccnc32)c2ccccc21 [GW441756] (first compound 2 µM, partner dose 0.4 µM)",27.3%
3,"Cn1cnc2c(F)c(Nc3ccc(Br)cc3Cl)c(C(=O)NOCCO)cc21 [selumetinib] + O=C(Nc1ccccc1)c1cc([N+](=O)[O-])ccc1Cl [GW9662] (first compound 0.015 µM, partner dose 2 µM)",276%
4,"COc1ccc(C2=N[C@@H](c3ccc(Cl)cc3)[C@@H](c3ccc(Cl)cc3)N2C(=O)N2CCNC(=O)C2)c(OC(C)C)c1 [Nutlin-3] + COc1ccc2c(c1)CCC1C2CCC2(C)C(NCCCCCCN3C(=O)C=CC3=O)CCC12 [U73122] (first compound 0.1 µM, partner dose 0.4 µM)",110%
5,"CS(=O)(=O)c1ccc(C(=O)Nc2ccc(Cl)c(-c3ccccn3)c2)c(Cl)c1 [vismodegib] + Cc1cc(N2CCOCC2)cc2[nH]c(-c3c(NC[C@@H](O)c4cccc(Cl)c4)cc[nH]c3=O)nc12 [BMS536924] (first compound 1 µM, partner dose 0.2 µM)",115%
6,"CC1(C)CCC(c2ccc(Cl)cc2)=C(CN2CCN(c3ccc(C(=O)NS(=O)(=O)c4ccc(N[C@H](CCN5CCOCC5)CSc5ccccc5)c(S(=O)(=O)C(F)(F)F)c4)cc3)CC2)C1 + Cc1cc(N2CCOCC2)cc2[nH]c(-c3c(NC[C@@H](O)c4cccc(Cl)c4)cc[nH]c3=O)nc12 [BMS536924] (first compound 0.4 µM, partner dose 0.2 µM)",292%
